The supplement of paper PMC11006884
Most of the targets with a hit are listed elsewhere, so they are rarer here than in the full data. This is a noisy data set. Only a part is listed here, and it is no random draw.

Sequences of proteins named here, by UniProt entry; tags and fusion partners are left off. A change or cut given only in a name is not applied to a line headed by its entry.
UniProt Q9NPA3, whole entry: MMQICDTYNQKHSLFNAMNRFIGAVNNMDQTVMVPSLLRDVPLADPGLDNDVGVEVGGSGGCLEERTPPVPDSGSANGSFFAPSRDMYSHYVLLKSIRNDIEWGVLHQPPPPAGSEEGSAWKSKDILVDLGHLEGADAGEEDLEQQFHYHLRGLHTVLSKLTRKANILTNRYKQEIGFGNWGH
UniProt Q9NP72: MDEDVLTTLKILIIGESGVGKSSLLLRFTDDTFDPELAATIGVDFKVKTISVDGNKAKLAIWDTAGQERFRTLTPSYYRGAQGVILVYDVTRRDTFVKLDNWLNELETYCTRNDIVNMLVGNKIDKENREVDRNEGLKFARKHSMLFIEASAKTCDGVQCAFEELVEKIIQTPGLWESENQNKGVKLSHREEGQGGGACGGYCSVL
UniProt Q9NRL2: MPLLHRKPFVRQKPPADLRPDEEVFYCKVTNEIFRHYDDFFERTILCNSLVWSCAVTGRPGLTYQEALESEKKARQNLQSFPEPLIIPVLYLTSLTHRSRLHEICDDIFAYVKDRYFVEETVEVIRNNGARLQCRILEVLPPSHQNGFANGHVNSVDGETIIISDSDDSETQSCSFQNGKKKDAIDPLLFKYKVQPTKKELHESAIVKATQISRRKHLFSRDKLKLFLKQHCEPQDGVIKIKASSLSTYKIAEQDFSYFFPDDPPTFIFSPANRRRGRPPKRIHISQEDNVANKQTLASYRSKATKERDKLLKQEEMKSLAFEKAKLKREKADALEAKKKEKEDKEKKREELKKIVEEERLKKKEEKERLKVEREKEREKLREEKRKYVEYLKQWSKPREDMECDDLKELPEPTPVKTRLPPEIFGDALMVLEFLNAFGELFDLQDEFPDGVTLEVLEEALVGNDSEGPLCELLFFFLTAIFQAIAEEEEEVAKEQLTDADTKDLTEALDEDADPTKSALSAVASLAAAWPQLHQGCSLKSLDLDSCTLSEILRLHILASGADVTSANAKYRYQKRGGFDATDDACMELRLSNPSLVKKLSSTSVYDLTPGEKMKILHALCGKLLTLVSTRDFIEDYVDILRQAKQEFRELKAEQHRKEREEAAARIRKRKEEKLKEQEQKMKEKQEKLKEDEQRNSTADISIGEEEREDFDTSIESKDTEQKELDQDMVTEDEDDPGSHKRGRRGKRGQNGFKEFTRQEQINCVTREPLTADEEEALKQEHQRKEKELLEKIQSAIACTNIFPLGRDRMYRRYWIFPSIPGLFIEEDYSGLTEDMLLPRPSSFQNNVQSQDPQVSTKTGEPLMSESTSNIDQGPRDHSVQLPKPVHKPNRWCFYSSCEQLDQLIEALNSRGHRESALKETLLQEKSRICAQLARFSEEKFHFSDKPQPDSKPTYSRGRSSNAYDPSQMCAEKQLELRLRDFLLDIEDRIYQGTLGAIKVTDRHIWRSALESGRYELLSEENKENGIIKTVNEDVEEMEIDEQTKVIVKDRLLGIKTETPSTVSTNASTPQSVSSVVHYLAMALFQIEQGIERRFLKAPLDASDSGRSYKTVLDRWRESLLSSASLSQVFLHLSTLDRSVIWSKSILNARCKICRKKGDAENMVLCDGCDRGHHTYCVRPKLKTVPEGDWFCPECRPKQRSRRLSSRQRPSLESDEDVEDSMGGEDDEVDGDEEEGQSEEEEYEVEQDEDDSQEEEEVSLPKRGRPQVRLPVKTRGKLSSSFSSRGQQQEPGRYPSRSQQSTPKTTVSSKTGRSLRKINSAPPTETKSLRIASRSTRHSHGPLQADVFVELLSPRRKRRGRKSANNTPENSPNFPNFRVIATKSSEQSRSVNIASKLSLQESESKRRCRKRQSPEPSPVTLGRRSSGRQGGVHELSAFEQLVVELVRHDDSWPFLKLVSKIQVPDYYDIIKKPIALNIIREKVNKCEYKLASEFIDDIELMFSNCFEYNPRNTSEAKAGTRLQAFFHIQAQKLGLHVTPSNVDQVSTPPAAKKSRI
UniProt Q9H8H2: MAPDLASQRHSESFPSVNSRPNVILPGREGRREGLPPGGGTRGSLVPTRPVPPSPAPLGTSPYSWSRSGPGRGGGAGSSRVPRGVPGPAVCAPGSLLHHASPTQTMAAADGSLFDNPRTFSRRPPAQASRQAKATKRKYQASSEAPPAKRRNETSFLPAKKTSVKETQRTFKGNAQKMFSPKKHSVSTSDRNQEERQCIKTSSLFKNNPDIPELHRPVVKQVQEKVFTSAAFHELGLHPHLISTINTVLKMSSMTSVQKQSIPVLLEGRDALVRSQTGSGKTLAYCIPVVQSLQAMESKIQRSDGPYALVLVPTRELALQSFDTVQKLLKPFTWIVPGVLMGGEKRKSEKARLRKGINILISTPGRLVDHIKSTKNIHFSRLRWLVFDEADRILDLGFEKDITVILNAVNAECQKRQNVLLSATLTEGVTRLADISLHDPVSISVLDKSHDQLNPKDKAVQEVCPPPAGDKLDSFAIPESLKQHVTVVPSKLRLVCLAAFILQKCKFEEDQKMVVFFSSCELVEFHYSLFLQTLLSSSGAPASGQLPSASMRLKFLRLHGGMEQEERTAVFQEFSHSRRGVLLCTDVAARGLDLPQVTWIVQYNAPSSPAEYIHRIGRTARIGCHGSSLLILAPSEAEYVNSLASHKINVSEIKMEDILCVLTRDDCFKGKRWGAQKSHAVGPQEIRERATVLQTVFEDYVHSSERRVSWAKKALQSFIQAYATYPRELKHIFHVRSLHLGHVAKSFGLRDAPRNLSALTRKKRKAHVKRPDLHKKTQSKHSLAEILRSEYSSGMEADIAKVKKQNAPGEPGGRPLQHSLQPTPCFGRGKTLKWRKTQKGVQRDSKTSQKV
UniProt Q9NR30: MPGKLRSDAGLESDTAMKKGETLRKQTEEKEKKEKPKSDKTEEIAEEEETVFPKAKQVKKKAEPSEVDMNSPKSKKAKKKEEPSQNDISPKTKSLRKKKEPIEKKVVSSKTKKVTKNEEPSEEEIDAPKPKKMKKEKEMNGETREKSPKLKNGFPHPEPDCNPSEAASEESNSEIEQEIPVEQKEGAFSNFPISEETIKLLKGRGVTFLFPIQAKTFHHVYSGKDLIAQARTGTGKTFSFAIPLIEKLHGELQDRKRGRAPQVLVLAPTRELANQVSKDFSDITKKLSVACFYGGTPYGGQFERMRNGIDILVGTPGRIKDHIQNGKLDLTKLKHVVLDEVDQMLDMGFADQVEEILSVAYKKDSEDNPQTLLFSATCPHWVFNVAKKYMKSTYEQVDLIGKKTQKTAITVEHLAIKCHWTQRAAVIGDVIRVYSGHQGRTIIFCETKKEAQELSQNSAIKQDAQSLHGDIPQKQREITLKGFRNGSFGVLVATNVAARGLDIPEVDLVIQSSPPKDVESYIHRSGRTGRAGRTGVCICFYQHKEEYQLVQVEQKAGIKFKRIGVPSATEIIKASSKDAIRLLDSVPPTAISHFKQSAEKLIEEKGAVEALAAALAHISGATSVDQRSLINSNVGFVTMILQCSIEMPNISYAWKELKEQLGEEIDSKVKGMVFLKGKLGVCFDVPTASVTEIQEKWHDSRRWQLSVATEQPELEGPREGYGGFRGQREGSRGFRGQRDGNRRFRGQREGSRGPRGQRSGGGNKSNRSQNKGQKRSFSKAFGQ
UniProt Q9NQ55: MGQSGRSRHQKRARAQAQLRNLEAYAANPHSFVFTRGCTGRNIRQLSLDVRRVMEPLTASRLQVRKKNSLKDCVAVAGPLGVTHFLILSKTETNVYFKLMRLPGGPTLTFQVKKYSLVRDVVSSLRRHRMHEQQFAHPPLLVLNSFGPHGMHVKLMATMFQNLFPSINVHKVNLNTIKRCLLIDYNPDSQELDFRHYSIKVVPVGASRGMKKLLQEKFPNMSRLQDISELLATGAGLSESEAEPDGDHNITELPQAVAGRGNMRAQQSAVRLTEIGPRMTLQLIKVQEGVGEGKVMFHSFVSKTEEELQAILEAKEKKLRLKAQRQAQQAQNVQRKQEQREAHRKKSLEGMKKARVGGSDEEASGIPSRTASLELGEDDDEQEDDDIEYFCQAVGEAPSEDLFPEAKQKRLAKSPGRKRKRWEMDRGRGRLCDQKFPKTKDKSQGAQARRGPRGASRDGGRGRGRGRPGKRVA
UniProt Q9NQZ5: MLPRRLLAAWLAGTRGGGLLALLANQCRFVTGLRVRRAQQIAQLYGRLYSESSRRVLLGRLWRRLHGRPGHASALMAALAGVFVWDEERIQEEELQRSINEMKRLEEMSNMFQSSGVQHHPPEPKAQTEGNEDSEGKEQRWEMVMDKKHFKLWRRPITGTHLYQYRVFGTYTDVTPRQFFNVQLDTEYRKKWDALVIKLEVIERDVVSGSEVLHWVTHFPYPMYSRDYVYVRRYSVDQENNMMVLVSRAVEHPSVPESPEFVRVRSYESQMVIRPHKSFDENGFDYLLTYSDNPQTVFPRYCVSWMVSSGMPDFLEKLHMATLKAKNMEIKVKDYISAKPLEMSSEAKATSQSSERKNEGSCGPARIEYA
UniProt Q9NT62, whole entry, looked up: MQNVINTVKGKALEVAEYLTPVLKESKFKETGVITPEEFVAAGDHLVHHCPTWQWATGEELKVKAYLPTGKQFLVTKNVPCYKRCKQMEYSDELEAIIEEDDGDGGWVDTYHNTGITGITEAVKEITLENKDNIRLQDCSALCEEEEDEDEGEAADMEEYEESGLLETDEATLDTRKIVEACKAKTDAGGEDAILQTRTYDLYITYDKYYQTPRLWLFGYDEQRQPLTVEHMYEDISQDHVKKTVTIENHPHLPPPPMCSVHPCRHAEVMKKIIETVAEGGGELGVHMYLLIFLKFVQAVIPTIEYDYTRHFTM
UniProt Q9NR31: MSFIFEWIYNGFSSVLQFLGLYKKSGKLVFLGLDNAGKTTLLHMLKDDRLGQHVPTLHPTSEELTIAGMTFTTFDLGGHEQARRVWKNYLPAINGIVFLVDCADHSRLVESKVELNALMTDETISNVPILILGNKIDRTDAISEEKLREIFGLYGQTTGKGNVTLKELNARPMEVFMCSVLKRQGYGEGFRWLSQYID
UniProt Q9NR56: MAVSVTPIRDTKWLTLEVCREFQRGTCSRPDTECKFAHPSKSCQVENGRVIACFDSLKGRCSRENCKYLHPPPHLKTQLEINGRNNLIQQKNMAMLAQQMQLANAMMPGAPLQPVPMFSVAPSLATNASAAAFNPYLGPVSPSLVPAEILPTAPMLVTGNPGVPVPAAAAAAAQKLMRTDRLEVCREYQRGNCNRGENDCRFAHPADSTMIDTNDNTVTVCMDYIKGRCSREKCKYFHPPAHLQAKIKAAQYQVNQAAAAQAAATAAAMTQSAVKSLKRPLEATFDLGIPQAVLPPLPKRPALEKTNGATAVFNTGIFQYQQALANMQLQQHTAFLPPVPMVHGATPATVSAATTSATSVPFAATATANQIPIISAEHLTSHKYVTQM
UniProt Q9NPI1: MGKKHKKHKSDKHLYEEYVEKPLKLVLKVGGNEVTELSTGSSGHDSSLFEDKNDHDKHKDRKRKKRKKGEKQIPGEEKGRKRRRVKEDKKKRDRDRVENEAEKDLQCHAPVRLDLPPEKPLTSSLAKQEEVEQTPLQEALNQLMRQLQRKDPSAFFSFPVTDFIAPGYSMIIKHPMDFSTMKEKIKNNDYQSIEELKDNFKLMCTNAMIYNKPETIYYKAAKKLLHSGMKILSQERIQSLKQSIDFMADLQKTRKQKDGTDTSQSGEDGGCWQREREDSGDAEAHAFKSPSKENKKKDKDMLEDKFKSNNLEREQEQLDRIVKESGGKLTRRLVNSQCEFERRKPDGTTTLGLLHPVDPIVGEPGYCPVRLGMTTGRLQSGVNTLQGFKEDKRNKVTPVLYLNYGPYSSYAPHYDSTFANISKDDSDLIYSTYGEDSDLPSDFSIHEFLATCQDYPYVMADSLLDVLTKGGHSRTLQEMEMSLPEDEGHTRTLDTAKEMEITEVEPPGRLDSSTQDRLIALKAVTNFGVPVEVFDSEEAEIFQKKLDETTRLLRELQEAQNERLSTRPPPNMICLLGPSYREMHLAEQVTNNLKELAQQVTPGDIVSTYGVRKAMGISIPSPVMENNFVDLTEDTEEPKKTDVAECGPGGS
UniProt Q9H3R5: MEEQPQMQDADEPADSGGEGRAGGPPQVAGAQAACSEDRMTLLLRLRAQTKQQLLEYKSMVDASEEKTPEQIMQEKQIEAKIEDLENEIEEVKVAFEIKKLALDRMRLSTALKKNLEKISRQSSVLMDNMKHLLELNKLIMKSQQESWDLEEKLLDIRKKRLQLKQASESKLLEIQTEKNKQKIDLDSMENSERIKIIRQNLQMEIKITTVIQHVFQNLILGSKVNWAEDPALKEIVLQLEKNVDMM

compound: COC(=O)/C=C/c1ccccc1 [methyl cinnamate]; assay: log2 ratio of iodoacetamide-alkyne labeling of the cysteine site, DMSO over compound (competition); higher = stronger covalent engagement of the cysteine by the compound, active = 1 or more; conditions: 500 µM; treatment time 1 h; system: HEK293T cell lysate
Method in brief: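 For each cysteine, the log2 competition ratio is mean control-channel reporter intensity over mean compound-channel reporter intensity. HEK293T lysate (2 mg/mL) was exposed to vehicle or electrophile (500 µM, 1 h, ambient temperature), labelled with iodoacetamide alkyne (1 h), clicked to sCIP-TMT reagents, digested overnight with trypsin at 37 °C, streptavidin-enriched and analysed by Orbitrap Eclipse LC-MS/MS with FAIMS and FragPipe. Cysteines quantified in only one of three replicates, each with duplicate channels, were excluded.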

log2 ratio of iodoacetamide-alkyne labeling, inactive:
MDN1 C271 (UniProt Q9NU22) 0.465, MDN1 C172 (UniProt Q9NU22) 0.0289, UniProt Q9NPA3_C62 0.114, MCCC2 C267 (UniProt Q9HCC0) 0.181, BIRC6 C381 (UniProt Q9NR09) 0.297, RAB18 C155 (UniProt Q9NP72) 0.515, BAZ1A C547 (UniProt Q9NRL2) 0.106, CXorf56 C11 (UniProt Q9H5V9) 0.175, DDX31 C413 (UniProt Q9H8H2) -0.315, XPO5 C1052 (UniProt Q9HAV4) -0.00576, DDX21 C291 (UniProt Q9NR30) 0.214, UniProt Q9HBK9_C32 0.467, PPAN C432 (UniProt Q9NQ55) 0.263, STARD7 C302 (UniProt Q9NQZ5) -0.397, ATG3 C182 (UniProt Q9NT62) 0.451, MED4 C162 (UniProt Q9NPJ6) 0.23, SAR1A C102 (UniProt Q9NR31) -0.106, MBNL1 C53 (UniProt Q9NR56) 0.225, BRD7 C271 (UniProt Q9NPI1) 0.451, CHD8 C1980 (UniProt Q9HCK8) 0.195, CENPH C35 (UniProt Q9H3R5) 0.316, XPNPEP1 C308 (UniProt Q9NQW7) 0.148
